Values of other authors, collected in patent US12508328B2, “Bio-activated reporters to visualize, in real time, specific gene therapy products” (Northwestern University, priority 2019, dated 2025).
At least one compound was matched to its structure with a doubt left.

Details: cited from earlier work

O=C(O)CN1CCN(CC(=O)O)CCN(CC(=O)O)CCN(CC(=O)O)CC1 [DOTA, 1,4,7,10-tetraazacyclo-dodecane-N,N′,N″,N′″-tetracetic acid]
formation constant log K: 26.5
